Laboratory results: publication PMC8750447
Results are given in words; binding and its absence hold for the method and conditions named. Binding can be weak; no strength is given.

Legend:
[1] = target: human plasma fibronectin (human); assay: ELISA; solid phase enzyme immunoassay; medium binding plates coated with 10 µg/mL fibronectin, type I or type III collagen overnight at room temperature in PBS, blocked with 1% BSA; His tagged rPro in serial dilution starting at 10 µg/mL, 1 h at room temperature; detected with biotinylated α-His antibody and streptavidin HRP; both purified
[2] = target: human plasma fibronectin (human); assay: ELISA; antibody displacement assay; plates coated with 10 µg/mL fibronectin, blocked with 5% human plasma; 1.5 µg/mL his-tagged prodomain alone or with antibodies (mouse IgG1, human IgG4 isotype controls, 10A10, HC5LC4), 1 h at room temperature; detected with biotinylated α-His antibody and streptavidin HRP; both purified

B1: Recombinant prodomain (rPro) of N-cadherin, amino acids 26-159 (domain or fragment, UniProt P19022 26-159)
chain: SGEIALCKTGFPEDVYSAVLSKDVHEGQPLLNVKFSNCNGKRKVQYESSEPADFKVDEDGMVYAVRSFPLSSEHAKFLIYAQDKETQEKWQVAVKLSLKPTLTEESVKESAEVEEIVFPRQFSKHSGHLQRQKR
B1 was tested, and the binding [1] was “binds” and the binding [2] was “binds”.
